Results as given in patent US20170189504A1, “NOVEL PEPTIDES AND COMBINATION OF PEPTIDES FOR USE IN IMMUNOTHERAPY AGAINST VARIOUS CANCERS” (immatics biotechnologies GmbH, priority 2015, published 2017).
For part of these data: Expression values are those of the mRNA of the gene that encodes the peptide; a gene is named only where it was looked up.

What was measured:
source genes (mRNA) [1] = experiment: Gene and exon expression of source genes, TCGA tumor samples compared with normal tissue samples (Lonsdale, 2013) (Table 17); set-up: species or system human; conditions: for Over-expression category of source gene (target coverage), COAD: COAD = Colon and rectal adenocarcinoma (N = 462); for Over-expression category of source gene (target coverage), ESCA: ESCA = Esophageal cancer (N = 185); for Over-expression category of source gene (target coverage), READ: READ = Colon and rectal adenocarcinoma (N = 167); for Over-expression category of source gene (target coverage), STAD: STAD = Stomach adenocarcinoma (N = 415)
HLA-A*24 = experiment: Identification and relative LC-MS quantitation of HLA-A*24-presented tumor-associated peptides on tissue samples (presentation profiles, Tables 14A, 14B, 16, FIG. 1); set-up: species or system human; key to Presentation score GC / Presentation score NSCLC / Presentation score PCA / Presentation score GB / Presentation score HCC / Presentation score RCC: specifically presented on tumors (++++); very highly over-presented on tumors compared to a panel of normal tissues (+++); highly over-presented on tumors compared to a panel of normal tissues (++); over-presented on tumors compared to a panel of normal tissues (+); conditions: for Presentation score GC: gastric cancer (N = 44) vs panel of normal tissues (N = 70); for Peptide Presentation on cancer entities: Table 14A, HLA-A*24-binding tumor-associated peptides, cancer entities on which the peptide was found presented
source genes (mRNA) [2] = experiment: Expression profiling of source genes by in-house RNASeq of tumor and normal tissues (Table 18, FIG. 2); set-up: species or system human; key: very highly over-expressed in tumors compared to a panel of normal tissues (+++); highly over-expressed in tumors compared to a panel of normal tissues (++); over-expressed in tumors compared to a panel of normal tissues (+); conditions: source gene of peptide; for Expression score OSCAR: esophageal cancer incl. gastric-esophageal junction (N = 11) vs panel of normal tissues; for Expression score GBC_CCC: gallbladder adenocarcinoma and cholangiocarcinoma (N = 3) vs panel of normal tissues; for Expression score OC: ovarian cancer (N = 12) vs panel of normal tissues; for Expression score PCA: prostate cancer and benign prostate hyperplasia (N = 5) vs panel of normal tissues; for Expression score UBC: urinary bladder cancer (N = 10) vs panel of normal tissues; for Expression score GB: glioblastoma (N = 24) vs panel of normal tissues; for Expression score NHL: non-Hodgkin lymphoma (N = 10) vs panel of normal tissues; for Expression score NSCLC: non-small cell lung cancer (N = 11) vs panel of normal tissues

177: peptide found in CYP2W1 (gene looked up) (VYPWLGALL; listed as Homo sapiens) [compound 177]
Over-expression category of source gene (target coverage), COAD (source genes (mRNA) [1]; same cutoff): B (>= 20% of tumors above the cutoff, but <50%)
Over-expression category of source gene (target coverage), ESCA (source genes (mRNA) [1]; same cutoff): C (>=5% of tumors above the cutoff, but <20%)
Over-expression category of source gene (target coverage), READ (source genes (mRNA) [1]; same cutoff): B (>= 20% of tumors above the cutoff, but <50%)
Over-expression category of source gene (target coverage), STAD (source genes (mRNA) [1]; same cutoff): C (>=5% of tumors above the cutoff, but <20%)
Presentation score GC (HLA-A*24; HLA-A*24 peptides): ++++
Expression score CRC (source genes (mRNA) [2]; colorectal cancer (N = 20) vs panel of normal tissues): +++
Expression score OSCAR (source genes (mRNA) [2]): ++
Expression score GBC_CCC (source genes (mRNA) [2]): +++
Expression score GC (source genes (mRNA) [2]; gastric cancer (N = 11) vs panel of normal tissues): +++
Expression score OC (source genes (mRNA) [2]): +++
Expression score PC (source genes (mRNA) [2]; pancreatic cancer (N = 26) vs panel of normal tissues): +
Expression score PCA (source genes (mRNA) [2]): +
Expression score UBC (source genes (mRNA) [2]): +

210: peptide found in MDM2 (gene looked up) (IYTMIYRNL; listed as Homo sapiens) [compound 210]
Over-expression category of source gene (target coverage), BLCA (source genes (mRNA) [1]; BLCA = Bladder urothelial carcinoma (N = 408), same cutoff): B (>= 20% of tumors above the cutoff, but <50%)
Over-expression category of source gene (target coverage), BRCA (source genes (mRNA) [1]; BRCA = Breast cancer (N = 1104), tumors more than 2-fold above highest 75% percentile of normal tissues): A (>=50% of tumors above the cutoff)
Over-expression category of source gene (target coverage), CHOL (source genes (mRNA) [1]; CHOL = Cholangiocarcinoma (N = 36), same cutoff): B (>= 20% of tumors above the cutoff, but <50%)
Over-expression category of source gene (target coverage), COAD (source genes (mRNA) [1]; same cutoff): C (>=5% of tumors above the cutoff, but <20%)
Over-expression category of source gene (target coverage), DLBC (source genes (mRNA) [1]; DLBC = Lymphoid neoplasm diffuse large B-cell lymphoma (N = 48), same cutoff): C (>=5% of tumors above the cutoff, but <20%)
Over-expression category of source gene (target coverage), ESCA (source genes (mRNA) [1]; same cutoff): A (>=50% of tumors above the cutoff)
Over-expression category of source gene (target coverage), GBM (source genes (mRNA) [1]; GBM = Glioblastoma multiforme (N = 169), same cutoff): B (>= 20% of tumors above the cutoff, but <50%)
Over-expression category of source gene (target coverage), KICH (source genes (mRNA) [1]; KICH = Kidney chromophobe (N = 66), same cutoff): C (>=5% of tumors above the cutoff, but <20%)
Over-expression category of source gene (target coverage), KIRC (source genes (mRNA) [1]; KIRC = Clear cell kidney carcinoma (N = 534), same cutoff): A (>=50% of tumors above the cutoff)
Over-expression category of source gene (target coverage), KIRP (source genes (mRNA) [1]; KIRP = Papillary kidney carcinoma (N = 291), same cutoff): B (>= 20% of tumors above the cutoff, but <50%)
Over-expression category of source gene (target coverage), LAML (source genes (mRNA) [1]; LAML = Acute Myeloid Leukemia (N = 173), same cutoff): A (>=50% of tumors above the cutoff)
Over-expression category of source gene (target coverage), LGG (source genes (mRNA) [1]; LGG = Lower grade glioma (N = 534), same cutoff): C (>=5% of tumors above the cutoff, but <20%)
Over-expression category of source gene (target coverage), LIHC (source genes (mRNA) [1]; LIHC = Liver hepatocellular carcinoma (N = 374), same cutoff): C (>=5% of tumors above the cutoff, but <20%)
Over-expression category of source gene (target coverage), LUAD (source genes (mRNA) [1]; LUAD = Lung adenocarcinoma (N = 517), same cutoff): B (>= 20% of tumors above the cutoff, but <50%)
Over-expression category of source gene (target coverage), LUSC (source genes (mRNA) [1]; LUSC = Lung squamous cell carcinoma (N = 503), same cutoff): B (>= 20% of tumors above the cutoff, but <50%)
Over-expression category of source gene (target coverage), OV (source genes (mRNA) [1]; OV = Ovarian serous cystadenocarcinoma (N = 309), same cutoff): C (>=5% of tumors above the cutoff, but <20%)
Over-expression category of source gene (target coverage), PAAD (source genes (mRNA) [1]; PAAD = Pancreatic ductal adenocarcinoma (N = 179), same cutoff): C (>=5% of tumors above the cutoff, but <20%)
Over-expression category of source gene (target coverage), PRAD (source genes (mRNA) [1]; PRAD = Prostate adenocarcinoma (N = 498), same cutoff): C (>=5% of tumors above the cutoff, but <20%)
Over-expression category of source gene (target coverage), READ (source genes (mRNA) [1]; same cutoff): C (>=5% of tumors above the cutoff, but <20%)
Over-expression category of source gene (target coverage), SKCM (source genes (mRNA) [1]; SKCM = Skin cutaneous melanoma (N = 473), same cutoff): B (>= 20% of tumors above the cutoff, but <50%)
Over-expression category of source gene (target coverage), STAD (source genes (mRNA) [1]; same cutoff): A (>=50% of tumors above the cutoff)
Over-expression category of source gene (target coverage), UCEC (source genes (mRNA) [1]; UCEC = Uterine corpus endometrial carcinoma (N = 546), same cutoff): B (>= 20% of tumors above the cutoff, but <50%)
Presentation score GC (HLA-A*24; HLA-A*24 peptides): +
Presentation score GB (HLA-A*24; HLA-A*24 peptides, glioblastoma (N = 18) vs panel of normal tissues (N = 70)): +++
Peptide Presentation on cancer entities (HLA-A*24): GB, GC, NSCLC
Expression score BRCA (source genes (mRNA) [2]; BRCA tumors vs panel of normal tissues): +
Expression score AML (source genes (mRNA) [2]; acute myeloid leukemia (N = 11) vs panel of normal tissues): +
Expression score OSCAR (source genes (mRNA) [2]): +
Expression score GBC_CCC (source genes (mRNA) [2]): +++
Expression score GB (source genes (mRNA) [2]): ++
Expression score NHL (source genes (mRNA) [2]): +
Expression score NSCLC (source genes (mRNA) [2]): +
Expression score RCC (source genes (mRNA) [2]; renal cell carcinoma (N = 10) vs panel of normal tissues): +
Expression score UBC (source genes (mRNA) [2]): +
Expression score UEC (source genes (mRNA) [2]; uterine cancer (N = 10) vs panel of normal tissues): +

284: peptide found in NCAPD3 (gene looked up) (RYLNKAFHI; listed as Homo sapiens) [compound 284]
Target coverage: over-expression category of source gene, LAML (source genes (mRNA) [1]; Acute Myeloid Leukemia (N = 173), tumor expression more than 2-fold above highest 75% percentile of high and medium risk normal tissues): A (>=50% of tumors above the cutoff)
Target coverage: over-expression category of source gene, BLCA (source genes (mRNA) [1]; Bladder urothelial carcinoma (N = 408), tumor expression more than 2-fold above highest 75% percentile of high and medium risk normal tissues): C (>=5% of tumors above the cutoff, but <20%)
Target coverage: over-expression category of source gene, BRCA (source genes (mRNA) [1]; Breast cancer (N = 1104), tumor expression more than 2-fold above highest 75% percentile of high and medium risk normal tissues): B (>= 20% of tumors above the cutoff, but <50%)
Target coverage: over-expression category of source gene, READ (source genes (mRNA) [1]; Colon and rectal adenocarcinoma (N = 167), tumor expression more than 2-fold above highest 75% percentile of high and medium risk normal tissues): B (>= 20% of tumors above the cutoff, but <50%)
Target coverage: over-expression category of source gene, COAD (source genes (mRNA) [1]; Colon and rectal adenocarcinoma (N = 462), tumor expression more than 2-fold above highest 75% percentile of high and medium risk normal tissues): B (>= 20% of tumors above the cutoff, but <50%)
Target coverage: over-expression category of source gene, ESCA (source genes (mRNA) [1]; Esophageal cancer (N = 185), tumor expression more than 2-fold above highest 75% percentile of high and medium risk normal tissues): A (>=50% of tumors above the cutoff)
Target coverage: over-expression category of source gene, GBM (source genes (mRNA) [1]; Glioblastoma multiforme (N = 169), tumor expression more than 2-fold above highest 75% percentile of high and medium risk normal tissues): C (>=5% of tumors above the cutoff, but <20%)
Target coverage: over-expression category of source gene, LGG (source genes (mRNA) [1]; Lower grade glioma (N = 534), tumor expression more than 2-fold above highest 75% percentile of high and medium risk normal tissues): C (>=5% of tumors above the cutoff, but <20%)
Target coverage: over-expression category of source gene, LUAD (source genes (mRNA) [1]; Lung adenocarcinoma (N = 517), tumor expression more than 2-fold above highest 75% percentile of high and medium risk normal tissues): C (>=5% of tumors above the cutoff, but <20%)
Target coverage: over-expression category of source gene, LUSC (source genes (mRNA) [1]; Lung squamous cell carcinoma (N = 503), tumor expression more than 2-fold above highest 75% percentile of high and medium risk normal tissues): B (>= 20% of tumors above the cutoff, but <50%)
Target coverage: over-expression category of source gene, DLBC (source genes (mRNA) [1]; Lymphoid neoplasm diffuse large B-cell lymphoma (N = 48), tumor expression more than 2-fold above highest 75% percentile of high and medium risk normal tissues): C (>=5% of tumors above the cutoff, but <20%)
Target coverage: over-expression category of source gene, OV (source genes (mRNA) [1]; Ovarian serous cystadenocarcinoma (N = 309), tumor expression more than 2-fold above highest 75% percentile of high and medium risk normal tissues): B (>= 20% of tumors above the cutoff, but <50%)
Target coverage: over-expression category of source gene, PRAD (source genes (mRNA) [1]; Prostate adenocarcinoma (N = 498), tumor expression more than 2-fold above highest 75% percentile of high and medium risk normal tissues): A (>=50% of tumors above the cutoff)
Target coverage: over-expression category of source gene, SKCM (source genes (mRNA) [1]; Skin cutaneous melanoma (N = 473), tumor expression more than 2-fold above highest 75% percentile of high and medium risk normal tissues): C (>=5% of tumors above the cutoff, but <20%)
Target coverage: over-expression category of source gene, STAD (source genes (mRNA) [1]; Stomach adenocarcinoma (N = 415), tumor expression more than 2-fold above highest 75% percentile of high and medium risk normal tissues): B (>= 20% of tumors above the cutoff, but <50%)
Target coverage: over-expression category of source gene, UCEC (source genes (mRNA) [1]; Uterine corpus endometrial carcinoma (N = 546), tumor expression more than 2-fold above highest 75% percentile of high and medium risk normal tissues): C (>=5% of tumors above the cutoff, but <20%)
Presentation score PCA (HLA-A*24; HLA-A*24 peptides, prostate cancer (N = 40) vs panel of normal tissues (N = 70)): ++++
Peptide Presentation on cancer entities (HLA-A*24): PCA
Expression score GB (source genes (mRNA) [2]): +
Expression score NHL (source genes (mRNA) [2]): +
Expression score NSCLC (source genes (mRNA) [2]): +
Expression score OC (source genes (mRNA) [2]): +
Expression score PCA (source genes (mRNA) [2]): +++
Expression score SCLC (source genes (mRNA) [2]; small cell lung cancer (N = 10) vs panel of normal tissues): +
